In US5672470A, “Microbial process for detection of toxic substances” (priority 1994, dated 1997):

Test system: bacteria phosphotransferase system (PTS) of E. coli mutant 1219bgl+
Assay type: cell-based
Description: Since the phosphotransferase system for the bacterial cell is an essential transport system for the reception of extracellular carbohydrates, a possible inhibition or adverse effect of the participating enzymes should be noticed to cause a reduction in the carbohydrate transport, that is the PTS constitutes a potential possibility for the detection of toxic substances in microorganisms. […] Said analog is of such a nature that it, in phosphorylated form after the cell transport, can be hydrolyzed by an enzyme in the bacterial cell under the release of a substance susceptible to analysis. […] The released 2-nitrophenyl can then, by means of photometry, be quantitatively measured as phenolate-anion after a defined time span. […]
The E. coli cultures of the mutant 1219 bgl+, preserved at -20° C., are first thawed to be reactivated during 10 min. at room temperature. […] After a 2 minute centrifugation at 17,000×g the substrate transformations of the tested bacteria suspensions are photometrically determined at 405 nm.
The evaluation of the PTS test with ONP-glycosides is done by means of the toxicological characteristic quantity of the "efficient concentration", (the EC value). […] The percentage of adverse effect of the parameter to be measured is indicated by the attached index. […]

Row | SMILES | factor by which test is more sensitive in HEPES buffer instead of phosphate buffer (inhibition through supply of the metal ion) | factor by which EC10 is below the corresponding value for chloroform (EC10 in ppm, phosphate buffer pH 6.5)
1 | [Hg+2] [Hg^2+] | 50 | –
2 | Cc1ccccc1 [Toluene, toluene] | – | ~50
